PubChem BioAssay AID1224830 | NIAID, 2016
Test: 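Genes whose knock-down alters the TNF-alpha reporter response to LPS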 (primary screen). Cells: human THP-1 monocytic leukaemia cells, TNF dual-luciferase reporter clone, PMA-differentiated to macrophage-like cells. Knock-down reagent: siRNA pool against human genes, 50 nM. Time to read-out: LPS for 4 h, given about 3 days after siRNA transfection. Challenge: bacterial LPS (TLR4 ligand), 10 ng/ml. Measurement: 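Ratio of firefly to renilla light, scaled to the plate median and expressed as a robust z-score per replicate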. Scale: TNF reporter robust z-score: higher = stronger TNF reporter response to LPS. Rule for the call: 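a well is active when its z-score exceeds 2.8 or falls below -1.5; control wells carry no call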.
Shown is one part, drawn at random, of about 18,000 deposited reagents. About 2,900 of all reagents (16%) count as active. 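Calls are made per well; low scores hint the gene aids the LPS response, high scores that it dampens it.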 Repeated entries: four replicate wells of each siRNA pool.

GPR135 (G protein-coupled receptor 135) — TNF reporter robust z-score = 0.17; outcome = inactive
GPR135 (G protein-coupled receptor 135) — TNF reporter robust z-score = 0.5; outcome = inactive
GPR135 (G protein-coupled receptor 135) — TNF reporter robust z-score = 0.56; outcome = inactive
GPR135 (G protein-coupled receptor 135) — TNF reporter robust z-score = 1.12; outcome = inactive
CIB3 (calcium and integrin binding family member 3) — TNF reporter robust z-score = -1.03; outcome = inactive
CIB3 (calcium and integrin binding family member 3) — TNF reporter robust z-score = -0.64; outcome = inactive
CIB3 (calcium and integrin binding family member 3) — TNF reporter robust z-score = 0.29; outcome = inactive
CIB3 (calcium and integrin binding family member 3) — TNF reporter robust z-score = 0.75; outcome = inactive
SLC6A15 — TNF reporter robust z-score = 0.26; outcome = inactive
SLC6A15 — TNF reporter robust z-score = 0.07; outcome = inactive
SLC6A15 — TNF reporter robust z-score = -0.39; outcome = inactive
SLC6A15 — TNF reporter robust z-score = -0.9; outcome = inactive
SYT17 (synaptotagmin 17) — TNF reporter robust z-score = -0.55; outcome = inactive
SYT17 (synaptotagmin 17) — TNF reporter robust z-score = 0.16; outcome = inactive
SYT17 (synaptotagmin 17) — TNF reporter robust z-score = 0.14; outcome = inactive
SYT17 (synaptotagmin 17) — TNF reporter robust z-score = 2.22; outcome = inactive
STOX2 (storkhead box 2) — TNF reporter robust z-score = -1.49; outcome = inactive
STOX2 (storkhead box 2) — TNF reporter robust z-score = -0.71; outcome = inactive
STOX2 (storkhead box 2) — TNF reporter robust z-score = -0.55; outcome = inactive
STOX2 (storkhead box 2) — TNF reporter robust z-score = -1.04; outcome = inactive

No new results follow: an excerpt of the list.
GPR135 (G protein-coupled receptor 135) — TNF reporter robust z-score = 0.17; outcome = inactive
GPR135 (G protein-coupled receptor 135) — TNF reporter robust z-score = 0.5; outcome = inactive
